{"source": "PubChem BioAssay AID720505 (Drosophila RNAi Screening Center, 2013)", "assay": "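Genes needed for store-operated calcium entry in fly cells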 (primary screen)", "cells": "Drosophila S2R+ cells", "reagents": "long dsRNA against Drosophila genes", "challenge": "thapsigargin (2 µM) in calcium-free buffer to empty internal stores, then 2 mM calcium added back", "read-out": "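Stores emptied by 2 µM thapsigargin without calcium, then 2 mM calcium re-added; fluo-4 fluorescence followed by FLIPR in 384-well plates, per-well averaged endpoint, raw; two screen passes, some wells retested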", "reading the numbers": "calcium signal: higher = more calcium entry after store depletion", "call rule": "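Knock-downs counted as hits when calcium entry dropped relative to STIM1 positive and Rho1 negative controls present on each plate; roughly 1500 genes called, with reductions of differing size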", "meaning of the calls": "active = called as lowering calcium entry; inactive = not called", "note": "The deposit covers about 20,000 reagents; shown is an unselected part of those that have a named target and a result. Of all reagents, about 2,100 (10%) were called active. 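Raw plate signals without normalisation; calls rest on control-based scores that were not deposited; replicate 2 separates called from uncalled poorly.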 The record does not give: the amount of reagent, the time to read-out."}
{"target": "CG34327", "dsRNA": "DRSC19517", "calcium signal, replicate 1": 60.3, "calcium signal, replicate 2": 121, "activity call": "active"}
{"target": "CG34327", "dsRNA": "DRSC22380", "calcium signal, replicate 1": 82.1, "calcium signal, replicate 2": 208, "activity call": "inactive"}
{"target": "Ir52a (Ionotropic receptor 52a)", "dsRNA": "DRSC06262", "calcium signal, replicate 1": 108, "calcium signal, replicate 2": 146, "activity call": "inactive"}
{"target": "mnb (minibrain)", "dsRNA": "DRSC20058", "calcium signal, replicate 1": 103, "calcium signal, replicate 2": 104, "activity call": "inactive"}
{"target": "mnb (minibrain)", "dsRNA": "DRSC20353", "calcium signal, replicate 1": 83.6, "calcium signal, replicate 2": 109, "activity call": "inactive"}
{"target": "mnb (minibrain)", "dsRNA": "DRSC23347", "calcium signal, replicate 1": 105, "calcium signal, replicate 2": 156, "activity call": "inactive"}
{"target": "CG32590", "dsRNA": "DRSC19594", "calcium signal, replicate 1": 96.1, "calcium signal, replicate 2": 164, "activity call": "inactive"}
{"target": "nau (nautilus)", "dsRNA": "DRSC17011", "calcium signal, replicate 1": 146, "calcium signal, replicate 2": 124, "activity call": "inactive"}
{"target": "CheB98a (Chemosensory protein A 98a)", "dsRNA": "DRSC14882", "calcium signal, replicate 1": 156, "calcium signal, replicate 2": 160, "activity call": "inactive"}
{"target": "Traf6 (TNF-receptor-associated factor 6)", "dsRNA": "DRSC18725", "calcium signal, replicate 1": 255, "calcium signal, replicate 2": 137, "activity call": "inactive"}
{"target": "Pdi (Protein disulfide isomerase)", "dsRNA": "DRSC11250", "calcium signal, replicate 1": 88.7, "calcium signal, replicate 2": 168, "activity call": "inactive"}
{"target": "Agxt (Alanine-glyoxylate aminotransferase)", "dsRNA": "DRSC18718", "calcium signal, replicate 1": 130, "calcium signal, replicate 2": 124, "activity call": "inactive"}
{"target": "Edc3 (Enhancer of decapping 3)", "dsRNA": "DRSC10620", "calcium signal, replicate 1": 119, "calcium signal, replicate 2": 96.6, "activity call": "inactive"}
{"target": "CG13473", "dsRNA": "DRSC10017", "calcium signal, replicate 1": 77.2, "calcium signal, replicate 2": 70.7, "activity call": "inactive"}
{"target": "Yp2 (Yolk protein 2)", "dsRNA": "DRSC18732", "calcium signal, replicate 1": 152, "calcium signal, replicate 2": 111, "activity call": "inactive"}
{"target": "CG12096", "dsRNA": "DRSC21692", "calcium signal, replicate 1": 218, "calcium signal, replicate 2": 73.5, "activity call": "inactive"}
{"target": "twf (twinfilin)", "dsRNA": "DRSC15466", "calcium signal, replicate 1": 110, "calcium signal, replicate 2": 121, "activity call": "inactive"}
{"target": "Arl1 (ADP ribosylation factor-like 1)", "dsRNA": "DRSC09667", "calcium signal, replicate 1": 110, "calcium signal, replicate 2": 174, "activity call": "inactive"}
{"target": "Pgant1 (Polypeptide N-Acetylgalactosaminyltransferase 1)", "dsRNA": "DRSC07095", "calcium signal, replicate 1": 99.9, "calcium signal, replicate 2": 210, "activity call": "inactive"}

In a second layout: results already given.
Pdi (Protein disulfide isomerase) [DRSC11250] → calcium signal, replicate 1 = 88.7; calcium signal, replicate 2 = 168; activity call = inactive
Agxt (Alanine-glyoxylate aminotransferase) [DRSC18718] → calcium signal, replicate 1 = 130; calcium signal, replicate 2 = 124; activity call = inactive
